Here are results for five compounds from patent US9133288B2, “Retarder composition” (NUFARM UK LIMITED, priority 2010, dated 2015).

Data set [1] in a line: Batch test of polymerisation control in refluxing styrene monomer. The note with it: for Effect (inhibitor, retarder or none): styrene monomer, 120° C., reduced pressure; for Polymer (ppm) @ 30 mins: sample at 30 mins.
Data set [2] is described as follows: Continuous flow test of polymerisation control, polymer at steady state. To be noted: styrene monomer, 120° C., reduced pressure, dwell time two hours, steady state after 240 minutes.
[3] abbreviates: styrene monomer refluxing under reduced pressure at 120° C.

On to `CCC(C)C1([N+](=O)[O-])C=C([N+](=O)[O-])C=CC1O` (centres unmarked) [Control 1, 2,4-dinitro-ortho-sec-butyl-phenol], for which the “Polymer (ppm) @ 180 mins” value in data set [1] (styrene monomer refluxing under reduced pressure at 120° C., sample at 180 mins) was 6000 ppm. In addition, in data set [1], the “Effect (inhibitor, retarder or none)” value is on record as “Retarder”.

Take `CC(C)(C)C1=CC(=O)C(C(C)(C)C)=CC1=O` [Control 5, 2,5 di-tert-butylbenzoquinone]: in data set [1] (setting [3]), the “Polymer (ppm) @ 30 mins” value was >10,000 ppm. In data set [1], the “Effect (inhibitor, retarder or none)” value was “neither inhibitors nor retarders and None”.

In the case of `ON(Cc1ccccc1)Cc1ccccc1` [Control 6, N,N-dibenzyl hydroxylamine], in data set [1] (setting [3]), the “Polymer (ppm) @ 30 mins” value is listed as >10,000 ppm. In addition, in data set [1], the “Effect (inhibitor, retarder or none)” value was “neither inhibitors nor retarders and None”.

Consider `CCC(C)C1([N+](=O)[O-])C=C([N+](=O)[O-])C=CC1O` (centres unmarked) [Control 7, 2,4-dinitro-ortho-sec-butyl-phenol], for which, in data set [2], the “Polymer at steady state (ppm)” value amounted to 5000 ppm.

In the case of `CCC(C)C1([N+](=O)[O-])C=C([N+](=O)[O-])C=CC1O` (centres unmarked) [Control 8, 2,4-dinitro-ortho-sec-butyl-phenol], the “Polymer at steady state (ppm)” value in data set [2] is recorded as 1000 ppm.
